Values are relative to the signal before dosing, not to a vehicle control; the signal also falls without drug.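 Fibroblast labels name human fibroblasts: mostly primary ones from tissues such as uterus (C12385, HUF), lung (H6013), bone (Hs27A), adrenal (HADF) and skin (WS1), plus mammary HMF and breast cancer-associated Hs343T. The cancer cells are basal-like or mesenchymal-like triple-negative breast cancer lines. The paper calls a changed response a hit when it shifts by more than 3x the replicate standard deviation. The tissue of the other fibroblasts is not given here.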
Tested on: MDAMB231
Assay: relative JC-1 red fluorescence (viability) vs pre-drug, coculture with fibroblast (fraction); higher = more viable cancer cells
Experimental: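 JC-1 labelled TNBC cells cocultured 1:1 (1,500 cells each) with CellTrace Violet stained primary or stromal fibroblasts in 384-well plates in FluoroBrite medium, treated with one of 42 anticancer drugs at 0.1, 1, 10 or 100 uM. JC-1 red fluorescence (mitochondrial integrity in cancer cells only) was read by plate reader every 8 h for 72 h. Values are normalised to each well's pre-drug value. The stock of one drug was tenfold lower, so its dose labels may be too high.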

CCC1=C[C@@H]2CN(C1)Cc1c([nH]c3ccccc13)[C@@](C(=O)OC)(c1cc3c(cc1OC)N(C)[C@H]1[C@@](O)(C(=O)OC)[C@H](OC(C)=O)[C@]4(CC)C=CCN5CC[C@]31[C@@H]54)C2 [Vinorelbine]
relative JC-1 red fluorescence
Conditions	8 h	16 h	24 h	32 h	40 h	48 h	56 h	64 h	72 h
0.1 µM, coculture fibroblast: C12385	0.828	0.737	0.712	0.631	0.565	0.54	0.512	0.535	0.537
0.1 µM, coculture fibroblast: H6013	0.893	0.78	0.767	0.762	0.7176	0.708	0.687	0.684	0.662
0.1 µM, coculture fibroblast: H6019	0.779	0.714	0.7102	0.664	0.634	0.62177	0.602	0.617	0.598
0.1 µM, coculture fibroblast: H6076	0.91656	0.8	0.736	0.702	0.657	0.614	0.581	0.568	0.563
0.1 µM, coculture fibroblast: H6231	0.941	0.8467	0.712	0.6616	0.5975	0.5677	0.508	0.484	0.453
0.1 µM, coculture fibroblast: HADF	0.9014	0.818	0.741	0.687	0.628	0.582	0.547	0.529	0.4852
0.1 µM, coculture fibroblast: HCFa	0.8935	0.795	0.744	0.685	0.61	0.552	0.5124	0.47699	0.426
0.1 µM, coculture fibroblast: HCPF	0.9343	0.8249	0.713	0.6844	0.6233	0.578	0.523	0.496	0.482
0.1 µM, coculture fibroblast: HHSteC	0.932	0.878	0.85	0.812	0.778	0.744	0.692	0.67	0.624
0.1 µM, coculture fibroblast: HMF	0.912	0.802	0.715	0.673	0.616	0.569	0.524	0.507	0.494
0.1 µM, coculture fibroblast: HPFa	0.9372	0.85	0.782	0.716	0.674	0.633	0.576	0.545	0.513
0.1 µM, coculture fibroblast: HUF	0.917	0.797	0.812	0.687	0.617	0.602	0.554	0.559	0.536
0.1 µM, coculture fibroblast: Hs5	0.8712	0.7957	0.75	0.699	0.6663	0.6173	0.5911	0.5702	0.555
0.1 µM, coculture fibroblast: Hs27A	0.9135	0.8573	0.7941	0.725	0.6739	0.6104	0.5973	0.5647	0.53465
0.1 µM, coculture fibroblast: Hs343T	0.91	0.788	0.689	0.652	0.594	0.546	0.492	0.464	0.448
0.1 µM, coculture fibroblast: WS1	0.796	0.711	0.648	0.595	0.553	0.523	0.484	0.493	0.49
1 µM, coculture fibroblast: C12385	0.795	0.733	0.718	0.646	0.565	0.544	0.509	0.519	0.508
1 µM, coculture fibroblast: H6013	0.899	0.803	0.789	0.775	0.723	0.706	0.68	0.662	0.619
1 µM, coculture fibroblast: H6019	0.82	0.794	0.796	0.778	0.764	0.76	0.744	0.761	0.752
1 µM, coculture fibroblast: H6076	0.882	0.8014	0.7761	0.75	0.708	0.668	0.646	0.631	0.615
1 µM, coculture fibroblast: H6231	0.947	0.864	0.7718	0.729	0.665	0.634	0.583	0.565	0.533
1 µM, coculture fibroblast: HADF	0.877	0.801	0.777	0.7475	0.699	0.667	0.632	0.619	0.572
1 µM, coculture fibroblast: HCFa	0.911	0.838	0.808	0.752	0.699	0.652	0.604	0.571	0.511
1 µM, coculture fibroblast: HCPF	0.885	0.78	0.7405	0.7247	0.666	0.624	0.593	0.57	0.545
1 µM, coculture fibroblast: HHSteC	0.9114	0.897	0.856	0.806	0.766	0.722	0.675	0.647	0.599
1 µM, coculture fibroblast: HMF	0.904	0.82	0.772	0.733	0.674	0.634	0.584	0.562	0.5325
1 µM, coculture fibroblast: HPFa	0.956	0.919	0.878	0.8131	0.7846	0.756	0.701	0.676	0.634
1 µM, coculture fibroblast: HUF	0.889	0.77	0.761	0.642	0.578	0.549	0.502	0.497	0.474
1 µM, coculture fibroblast: Hs5	0.889	0.8177	0.775	0.734	0.691	0.634	0.595	0.568	0.539
1 µM, coculture fibroblast: Hs27A	0.9323	0.86184	0.8199	0.7921	0.733	0.672	0.66	0.63	0.583
1 µM, coculture fibroblast: Hs343T	0.909	0.784	0.753	0.715	0.659	0.62	0.572	0.555	0.535
1 µM, coculture fibroblast: WS1	0.798	0.726	0.685	0.614	0.559	0.532	0.503	0.511	0.498
10 µM, coculture fibroblast: C12385	0.76	0.805	0.635	0.747	0.687	0.66	0.609	0.571	0.539
10 µM, coculture fibroblast: H6013	0.9032	0.901	0.8706	0.87	0.818	0.762	0.761	0.7333	0.6866
10 µM, coculture fibroblast: H6019	0.849	0.767	0.724	0.782	0.758	0.706	0.727	0.68	0.653
10 µM, coculture fibroblast: H6076	0.947	0.929	0.885	0.863	0.797	0.766	0.71	0.67	0.639
10 µM, coculture fibroblast: H6231	0.9892	0.972	0.917	0.8632	0.8193	0.793	0.739	0.704	0.655
10 µM, coculture fibroblast: HADF	0.921	0.917	0.908	0.888	0.851	0.783	0.784	0.766	0.692
10 µM, coculture fibroblast: HCFa	0.9188	0.9103	0.8903	0.876	0.828	0.7648	0.754	0.706	0.663
10 µM, coculture fibroblast: HCPF	0.9632	0.916	0.873	0.863	0.825	0.791	0.75	0.713	0.684
10 µM, coculture fibroblast: HHSteC	0.927	0.932	0.914	0.883	0.837	0.788	0.757	0.74	0.698
10 µM, coculture fibroblast: HMF	0.92	0.926	0.911	0.84	0.824	0.851	0.854	0.821	0.766
10 µM, coculture fibroblast: HPFa	0.88	0.859	0.843	0.871	0.772	0.746	0.814	0.697	0.785
10 µM, coculture fibroblast: HUF	0.879	0.8	0.809	0.723	0.674	0.645	0.6	0.59	0.568
10 µM, coculture fibroblast: Hs5	0.806	0.823	0.92	0.89	0.853	0.807	0.754	0.722	0.677
10 µM, coculture fibroblast: Hs27A	0.926	0.89	0.865	0.851	0.808	0.712	0.745	0.7304	0.6913
10 µM, coculture fibroblast: Hs343T	0.73	0.83805	0.903	0.884	0.906	0.805	0.791	0.822	0.804
10 µM, coculture fibroblast: WS1	0.7908	0.8004	0.686	0.715	0.678	0.637	0.59	0.568	0.543
100 µM, coculture fibroblast: C12385	0.692	0.596	0.398	0.265	0.202	0.166	0.135	0.127	0.1
100 µM, coculture fibroblast: H6013	0.9509	0.754	0.421	0.286	0.228	0.207	0.171	0.146	0.109
100 µM, coculture fibroblast: H6019	0.868	0.639	0.424	0.281	0.221	0.197	0.1638	0.15044	0.1226
100 µM, coculture fibroblast: H6076	0.791	0.828	0.484	0.39	0.329	0.284	0.251	0.23	0.199
100 µM, coculture fibroblast: H6231	0.887	0.934	0.608	0.411	0.307	0.266	0.212	0.193	0.164
100 µM, coculture fibroblast: HADF	0.943	0.814	0.509	0.313	0.234	0.21	0.167	0.145	0.107
100 µM, coculture fibroblast: HCFa	0.921	0.899	0.674	0.411	0.283	0.243	0.2	0.179	0.141
100 µM, coculture fibroblast: HCPF	0.852	0.871	0.5106	0.40542	0.298	0.255	0.218	0.183	0.157
100 µM, coculture fibroblast: HHSteC	0.848	0.8444	0.498	0.308	0.24	0.22	0.175	0.154	0.121
100 µM, coculture fibroblast: HMF	0.8845	0.769	0.7	0.489	0.354	0.303	0.239	0.22	0.188
100 µM, coculture fibroblast: HPFa	0.986	0.836	0.523	0.362	0.31	0.277	0.227	0.201	0.166
100 µM, coculture fibroblast: HUF	0.853	0.717	0.508	0.312	0.221	0.198	0.153	0.139	0.115
100 µM, coculture fibroblast: Hs5	0.849	0.835	0.558	0.413	0.319	0.251	0.214	0.173	0.144
100 µM, coculture fibroblast: Hs27A	0.9276	0.823	0.589	0.402	0.31	0.287	0.247	0.221	0.183
100 µM, coculture fibroblast: Hs343T	0.829	0.945	0.635	0.4646	0.331	0.269	0.217	0.191	0.162
100 µM, coculture fibroblast: WS1	0.772	0.497	0.26	0.142	0.091	0.0566	0.0282	0.0188	0.00089
